Data as given in PMC8402715 (Viruses, 2021).

Assay: Cell viability assay (Cell Titer Glow) in mock-infected RPE cells, cytotoxicity
Conditions: human

Clc1ccc2c(c1)CCc1cccnc1C2=C1CCNCC1 [desloratadine, Desloratadine]
CC50 at 48 h: 46.7 µM
